Data reported in patent publication US7351701B2, “Therapeutic compounds” (Cancer Research Technology Limited, priority 2004, dated 2008).
At least one structure is not confirmed: it was looked up by name or label, or the drawing left a doubt.

Tested on: SW620 xenografts
Test: Tumour growth (median relative tumour volume) in mice bearing SW620 xenografts
Format: in vivo
Settings: temozolomide alone 68 mg/kg daily×5, for 20 days from administration; thereafter size increases
Description: FIG. 8 is a graph showing the tumour growth (median relative tumour volume) in mice bearing SW620 xenografts following treatment with formula III in combination with temozolomide (TMZ) and with TMZ alone;
FIG. 9 is a graph showing the tumour growth (median relative tumour volume) of mice bearing SW620 xenografts following treatment with formula I-phosphate in combination with temozolomide (TMZ) and with formula I-phosphate and TMZ alone;
However, shortly after this time the tumour size begins to increase.

For `Cn1nnc2c(C(N)=O)ncn2c1=O` [temozolomide, reference compound], the tumour xenograft size was “progressively reduced in size”.
